In the supplement of paper PMC10032668:
The other results are listed elsewhere or left out. The list holds hits alone, and they repeat only in part.

Chains of the proteins cited; added tags and fusions are not shown.
RFC4, P35249, UniProt P35249, whole entry: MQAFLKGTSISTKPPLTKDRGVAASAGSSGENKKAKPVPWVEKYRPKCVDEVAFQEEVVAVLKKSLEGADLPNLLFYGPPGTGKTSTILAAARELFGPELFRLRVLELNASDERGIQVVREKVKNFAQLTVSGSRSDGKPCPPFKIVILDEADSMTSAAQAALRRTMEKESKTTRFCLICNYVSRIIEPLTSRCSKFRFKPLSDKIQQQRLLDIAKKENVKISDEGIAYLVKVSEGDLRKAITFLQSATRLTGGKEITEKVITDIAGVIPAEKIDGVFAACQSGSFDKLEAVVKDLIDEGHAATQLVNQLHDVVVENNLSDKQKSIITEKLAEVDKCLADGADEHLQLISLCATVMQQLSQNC
RNF40, O75150, UniProt O75150, whole entry: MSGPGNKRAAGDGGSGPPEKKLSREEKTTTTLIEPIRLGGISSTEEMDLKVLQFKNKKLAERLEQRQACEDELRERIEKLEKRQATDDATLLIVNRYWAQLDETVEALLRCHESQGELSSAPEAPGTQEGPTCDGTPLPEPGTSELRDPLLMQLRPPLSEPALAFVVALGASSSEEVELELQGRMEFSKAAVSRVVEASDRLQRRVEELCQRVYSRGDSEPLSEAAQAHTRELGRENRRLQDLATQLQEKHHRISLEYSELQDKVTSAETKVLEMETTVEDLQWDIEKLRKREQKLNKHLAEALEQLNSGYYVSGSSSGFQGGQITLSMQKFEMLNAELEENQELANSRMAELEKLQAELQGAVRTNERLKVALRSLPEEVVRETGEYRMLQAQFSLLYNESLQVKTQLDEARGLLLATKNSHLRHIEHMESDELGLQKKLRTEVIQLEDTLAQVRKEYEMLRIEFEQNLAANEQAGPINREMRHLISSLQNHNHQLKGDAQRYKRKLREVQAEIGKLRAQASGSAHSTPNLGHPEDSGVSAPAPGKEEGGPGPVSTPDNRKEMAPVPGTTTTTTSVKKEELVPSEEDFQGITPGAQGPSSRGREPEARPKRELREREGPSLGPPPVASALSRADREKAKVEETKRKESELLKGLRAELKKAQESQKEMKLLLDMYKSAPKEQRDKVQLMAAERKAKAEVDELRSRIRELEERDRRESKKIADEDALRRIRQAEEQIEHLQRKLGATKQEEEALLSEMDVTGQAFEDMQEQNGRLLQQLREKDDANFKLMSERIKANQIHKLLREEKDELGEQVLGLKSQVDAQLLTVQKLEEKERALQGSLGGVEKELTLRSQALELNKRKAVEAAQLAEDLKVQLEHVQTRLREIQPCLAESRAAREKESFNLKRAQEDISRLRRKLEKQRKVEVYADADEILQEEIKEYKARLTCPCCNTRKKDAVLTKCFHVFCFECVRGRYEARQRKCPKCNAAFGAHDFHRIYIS
UBR4, Q5T4S7, UniProt Q5T4S7, whole entry: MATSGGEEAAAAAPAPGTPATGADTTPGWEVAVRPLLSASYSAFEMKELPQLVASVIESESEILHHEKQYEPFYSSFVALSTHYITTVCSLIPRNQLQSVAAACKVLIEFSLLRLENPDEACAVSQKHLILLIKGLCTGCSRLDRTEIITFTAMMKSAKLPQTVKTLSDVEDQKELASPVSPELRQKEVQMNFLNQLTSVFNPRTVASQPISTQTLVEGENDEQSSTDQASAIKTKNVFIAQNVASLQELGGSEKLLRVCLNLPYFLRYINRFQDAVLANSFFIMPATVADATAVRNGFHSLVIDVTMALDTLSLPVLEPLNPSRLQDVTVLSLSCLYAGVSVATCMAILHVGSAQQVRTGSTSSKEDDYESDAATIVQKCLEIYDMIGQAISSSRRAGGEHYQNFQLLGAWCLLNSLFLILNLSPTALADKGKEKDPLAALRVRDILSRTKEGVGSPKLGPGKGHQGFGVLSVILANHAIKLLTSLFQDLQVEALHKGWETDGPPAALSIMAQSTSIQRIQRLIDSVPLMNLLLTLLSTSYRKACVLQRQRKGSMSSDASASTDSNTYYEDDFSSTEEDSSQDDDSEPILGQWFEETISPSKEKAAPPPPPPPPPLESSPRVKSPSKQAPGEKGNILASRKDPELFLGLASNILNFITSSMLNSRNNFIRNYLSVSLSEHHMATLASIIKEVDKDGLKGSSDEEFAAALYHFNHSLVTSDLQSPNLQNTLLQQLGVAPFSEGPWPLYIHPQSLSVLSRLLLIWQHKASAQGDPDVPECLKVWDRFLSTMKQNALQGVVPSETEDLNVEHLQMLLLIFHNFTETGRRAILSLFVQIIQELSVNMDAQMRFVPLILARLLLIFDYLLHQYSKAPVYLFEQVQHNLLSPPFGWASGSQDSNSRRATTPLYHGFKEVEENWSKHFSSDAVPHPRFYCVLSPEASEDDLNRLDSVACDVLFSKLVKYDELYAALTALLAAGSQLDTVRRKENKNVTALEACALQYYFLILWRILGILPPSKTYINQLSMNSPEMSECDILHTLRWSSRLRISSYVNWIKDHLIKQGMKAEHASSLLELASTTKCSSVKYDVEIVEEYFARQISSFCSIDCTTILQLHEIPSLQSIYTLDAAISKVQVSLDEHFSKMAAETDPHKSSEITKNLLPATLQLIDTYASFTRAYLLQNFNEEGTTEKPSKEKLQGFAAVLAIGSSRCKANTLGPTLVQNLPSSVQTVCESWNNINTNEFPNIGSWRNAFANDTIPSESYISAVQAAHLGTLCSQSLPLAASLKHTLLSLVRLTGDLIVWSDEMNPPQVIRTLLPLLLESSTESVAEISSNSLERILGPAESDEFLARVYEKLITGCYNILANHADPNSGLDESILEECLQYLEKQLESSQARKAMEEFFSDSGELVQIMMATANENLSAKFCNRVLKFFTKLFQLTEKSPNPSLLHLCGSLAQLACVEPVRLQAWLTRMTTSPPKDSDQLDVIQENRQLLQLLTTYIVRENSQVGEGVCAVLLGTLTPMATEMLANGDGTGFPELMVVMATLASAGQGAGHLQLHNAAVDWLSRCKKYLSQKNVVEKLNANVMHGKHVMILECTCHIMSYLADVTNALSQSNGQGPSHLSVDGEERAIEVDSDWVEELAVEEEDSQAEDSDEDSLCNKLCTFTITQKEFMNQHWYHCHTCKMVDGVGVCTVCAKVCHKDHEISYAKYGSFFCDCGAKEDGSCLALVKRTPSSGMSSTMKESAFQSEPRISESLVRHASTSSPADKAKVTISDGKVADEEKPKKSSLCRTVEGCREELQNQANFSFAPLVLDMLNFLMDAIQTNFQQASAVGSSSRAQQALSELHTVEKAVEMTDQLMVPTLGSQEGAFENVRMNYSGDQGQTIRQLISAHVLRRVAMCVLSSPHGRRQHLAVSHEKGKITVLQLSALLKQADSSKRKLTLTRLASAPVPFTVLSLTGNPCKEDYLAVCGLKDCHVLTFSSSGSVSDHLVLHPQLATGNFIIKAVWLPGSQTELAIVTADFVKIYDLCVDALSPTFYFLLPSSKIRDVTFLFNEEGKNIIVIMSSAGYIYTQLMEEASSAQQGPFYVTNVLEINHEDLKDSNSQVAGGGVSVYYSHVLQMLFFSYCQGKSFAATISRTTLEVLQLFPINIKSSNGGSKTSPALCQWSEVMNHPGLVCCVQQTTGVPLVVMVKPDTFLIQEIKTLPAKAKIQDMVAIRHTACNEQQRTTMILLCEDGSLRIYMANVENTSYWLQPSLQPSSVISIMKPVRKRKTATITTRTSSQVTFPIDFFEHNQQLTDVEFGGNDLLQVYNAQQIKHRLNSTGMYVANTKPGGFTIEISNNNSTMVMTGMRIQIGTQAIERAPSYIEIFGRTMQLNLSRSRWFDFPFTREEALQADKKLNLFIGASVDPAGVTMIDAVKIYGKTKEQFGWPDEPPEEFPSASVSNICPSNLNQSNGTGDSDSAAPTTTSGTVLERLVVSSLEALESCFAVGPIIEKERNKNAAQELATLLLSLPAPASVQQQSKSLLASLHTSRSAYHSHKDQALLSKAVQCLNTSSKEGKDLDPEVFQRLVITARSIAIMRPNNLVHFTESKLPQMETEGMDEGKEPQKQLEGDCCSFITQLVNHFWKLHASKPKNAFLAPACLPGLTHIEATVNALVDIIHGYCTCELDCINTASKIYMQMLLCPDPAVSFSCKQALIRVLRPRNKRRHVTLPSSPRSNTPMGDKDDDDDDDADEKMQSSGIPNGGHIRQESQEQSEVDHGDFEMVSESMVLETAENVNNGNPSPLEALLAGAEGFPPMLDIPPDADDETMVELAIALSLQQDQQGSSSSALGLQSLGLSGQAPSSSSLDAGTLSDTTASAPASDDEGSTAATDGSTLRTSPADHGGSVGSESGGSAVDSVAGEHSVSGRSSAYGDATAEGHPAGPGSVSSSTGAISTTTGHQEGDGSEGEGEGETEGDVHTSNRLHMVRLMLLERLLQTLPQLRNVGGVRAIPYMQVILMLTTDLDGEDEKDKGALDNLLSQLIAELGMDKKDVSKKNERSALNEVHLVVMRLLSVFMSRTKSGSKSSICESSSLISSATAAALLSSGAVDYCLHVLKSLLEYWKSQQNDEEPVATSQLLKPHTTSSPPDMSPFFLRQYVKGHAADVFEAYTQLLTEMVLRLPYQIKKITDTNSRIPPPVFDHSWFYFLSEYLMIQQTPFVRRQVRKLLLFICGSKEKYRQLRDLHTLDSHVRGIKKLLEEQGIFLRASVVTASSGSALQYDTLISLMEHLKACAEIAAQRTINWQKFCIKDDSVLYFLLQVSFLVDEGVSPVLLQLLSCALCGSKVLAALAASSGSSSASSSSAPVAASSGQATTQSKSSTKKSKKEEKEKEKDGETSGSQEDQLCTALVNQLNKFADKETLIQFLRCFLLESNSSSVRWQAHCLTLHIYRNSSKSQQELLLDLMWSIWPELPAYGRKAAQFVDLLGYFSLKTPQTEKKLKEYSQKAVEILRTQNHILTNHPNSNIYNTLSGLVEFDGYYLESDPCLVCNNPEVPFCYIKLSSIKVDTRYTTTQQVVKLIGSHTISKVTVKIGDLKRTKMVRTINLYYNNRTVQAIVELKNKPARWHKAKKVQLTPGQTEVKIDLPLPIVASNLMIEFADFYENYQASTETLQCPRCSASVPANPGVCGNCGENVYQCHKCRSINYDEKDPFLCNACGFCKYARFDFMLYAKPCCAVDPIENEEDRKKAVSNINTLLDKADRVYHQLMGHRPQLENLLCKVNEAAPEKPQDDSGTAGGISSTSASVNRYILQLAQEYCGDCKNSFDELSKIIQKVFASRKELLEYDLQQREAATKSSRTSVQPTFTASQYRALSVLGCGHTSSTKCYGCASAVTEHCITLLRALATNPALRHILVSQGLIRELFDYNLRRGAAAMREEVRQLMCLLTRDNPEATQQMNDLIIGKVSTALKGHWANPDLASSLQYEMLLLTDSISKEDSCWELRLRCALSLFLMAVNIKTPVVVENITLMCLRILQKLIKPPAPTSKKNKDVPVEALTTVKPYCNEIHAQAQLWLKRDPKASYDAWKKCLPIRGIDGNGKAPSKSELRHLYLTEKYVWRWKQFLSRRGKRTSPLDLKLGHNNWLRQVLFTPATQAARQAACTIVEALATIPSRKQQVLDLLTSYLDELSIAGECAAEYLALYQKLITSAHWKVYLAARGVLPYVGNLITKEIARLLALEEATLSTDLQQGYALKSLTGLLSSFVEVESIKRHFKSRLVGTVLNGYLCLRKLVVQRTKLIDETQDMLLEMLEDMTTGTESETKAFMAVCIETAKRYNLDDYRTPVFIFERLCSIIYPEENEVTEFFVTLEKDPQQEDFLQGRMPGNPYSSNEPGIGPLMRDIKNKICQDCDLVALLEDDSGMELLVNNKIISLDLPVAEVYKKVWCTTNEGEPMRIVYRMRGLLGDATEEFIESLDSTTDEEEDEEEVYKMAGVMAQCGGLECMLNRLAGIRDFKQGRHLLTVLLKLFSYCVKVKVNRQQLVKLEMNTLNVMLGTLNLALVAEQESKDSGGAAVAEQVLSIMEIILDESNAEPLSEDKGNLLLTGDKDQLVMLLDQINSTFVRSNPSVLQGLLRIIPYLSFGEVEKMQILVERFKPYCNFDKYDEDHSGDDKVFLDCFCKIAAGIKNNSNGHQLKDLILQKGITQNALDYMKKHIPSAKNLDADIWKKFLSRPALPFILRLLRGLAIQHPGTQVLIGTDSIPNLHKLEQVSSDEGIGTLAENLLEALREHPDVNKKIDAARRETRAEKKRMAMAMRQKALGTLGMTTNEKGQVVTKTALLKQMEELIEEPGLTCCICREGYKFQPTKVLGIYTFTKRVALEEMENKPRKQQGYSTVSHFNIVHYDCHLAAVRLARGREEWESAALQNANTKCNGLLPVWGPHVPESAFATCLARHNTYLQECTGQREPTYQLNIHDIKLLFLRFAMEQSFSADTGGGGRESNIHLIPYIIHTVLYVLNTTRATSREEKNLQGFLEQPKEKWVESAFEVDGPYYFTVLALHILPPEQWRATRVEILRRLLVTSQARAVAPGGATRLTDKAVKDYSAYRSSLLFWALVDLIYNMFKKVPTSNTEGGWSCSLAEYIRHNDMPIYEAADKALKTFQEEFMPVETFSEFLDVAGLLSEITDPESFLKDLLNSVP

Tests used:
Assay in all cases: PRISMA enrichment of interactor (LFQ) in peptide spot vs all other peptide spots (log2 fold change); higher = stronger / more specific binding of the interactor to the peptide
ABLIM1, O14639 = biological target: ABLIM1, O14639
Method: (§1)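 PRISMA: 15-aa overlapping tiles (offset 8 aa) of 60 microproteins, plus SOS1/GLUT1 control peptides, were spot-synthesized on cellulose membranes in triplicate. Membranes were incubated with benzonase-treated HEK293T lysate, and bound proteins were identified by LC-MS/MS with LFQ. Enrichment is the log2 fold change of each protein in one spot versus all other spots. Only interactors passing the significance cutoff are listed.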

AGTPBP1, Q9UPW5 = biological target: AGTPBP1, Q9UPW5
Method: as §1

APOA4, P06727 = biological target: APOA4, P06727
Method: as §1

BAZ1B, Q9UIG0 = biological target: BAZ1B, Q9UIG0
Method: as §1

BCLAF1, Q9NYF8 = biological target: BCLAF1, Q9NYF8
Method: as §1

CALD1, Q05682 = biological target: CALD1, Q05682
Method: as §1

CENPQ, Q7L2Z9 = biological target: CENPQ, Q7L2Z9
Method: as §1

CHD4, Q14839 = biological target: CHD4, Q14839
Method: as §1

CLIC1, O00299 = biological target: CLIC1, O00299
Method: as §1

DBR1, Q9UK59 = biological target: DBR1, Q9UK59
Method: as §1

DVL2, O14641 = biological target: DVL2, O14641
Method: as §1

ECHDC1, Q9NTX5 = biological target: ECHDC1, Q9NTX5
Method: as §1

EIF3H, O15372 = biological target: EIF3H, O15372
Method: as §1

FANCD2, Q9BXW9 = biological target: FANCD2, Q9BXW9
Method: as §1

HLTF, Q14527 = biological target: HLTF, Q14527
Method: as §1

HMGA2, P52926 = biological target: HMGA2, P52926
Method: as §1

HMGB1, P09429 = biological target: HMGB1, P09429
Method: as §1

HP1BP3, Q5SSJ5 = biological target: HP1BP3, Q5SSJ5
Method: as §1

HSDL1, Q3SXM5 = biological target: HSDL1, Q3SXM5
Method: as §1

LMNB2, Q03252 = biological target: LMNB2, Q03252
Method: as §1

MRPL48, Q96GC5 = biological target: MRPL48, Q96GC5
Method: as §1

MRPL58, Q14197 = biological target: MRPL58, Q14197
Method: as §1

OBSL1, O75147 = biological target: OBSL1, O75147
Method: as §1

PPP1R10, Q96QC0 = biological target: PPP1R10, Q96QC0
Method: as §1

RAB21, Q9UL25 = biological target: RAB21, Q9UL25
Method: as §1

RETREG3, Q86VR2 = biological target: RETREG3, Q86VR2
Method: as §1

RFC4, P35249 = biological target: RFC4, P35249
Method: as §1

RIF1, Q5UIP0 = biological target: RIF1, Q5UIP0
Method: as §1

RNF40, O75150 = biological target: RNF40, O75150
Method: as §1

SAE1, Q9UBE0 = biological target: SAE1, Q9UBE0
Method: as §1

SEC24C, P53992 = biological target: SEC24C, P53992
Method: as §1

SLC30A7, Q8NEW0 = biological target: SLC30A7, Q8NEW0
Method: as §1

SND1, Q7KZF4 = biological target: SND1, Q7KZF4
Method: as §1

SPATS2, Q86XZ4 = biological target: SPATS2, Q86XZ4
Method: as §1

TIA1, P31483 = biological target: TIA1, P31483
Method: as §1

TOMM70, O94826 = biological target: TOMM70, O94826
Method: as §1

TSPYL2, Q9H2G4 = biological target: TSPYL2, Q9H2G4
Method: as §1

UBR4, Q5T4S7 = biological target: UBR4, Q5T4S7
Method: as §1

XRCC5, P13010 = biological target: XRCC5, P13010
Method: as §1

ZBTB10, Q96DT7 = biological target: ZBTB10, Q96DT7
Method: as §1

ZNF22, P17026 = biological target: ZNF22, P17026
Method: as §1

CTQPSQQGVCHSRLK [RP11-140K17.3]
PRISMA enrichment of interactor (log2) (ABLIM1, O14639): 7.13 | PRISMA enrichment of interactor (log2) (AGTPBP1, Q9UPW5): 6.17 | PRISMA enrichment of interactor (log2) (APOA4, P06727): 4.59 | PRISMA enrichment of interactor (log2) (BAZ1B, Q9UIG0): 7.38 | PRISMA enrichment of interactor (log2) (BCLAF1, Q9NYF8): 5.19 | PRISMA enrichment of interactor (log2) (CALD1, Q05682): 5.8 | PRISMA enrichment of interactor (log2) (CENPQ, Q7L2Z9): 4.03 | PRISMA enrichment of interactor (log2) (CHD4, Q14839): 4.7 | PRISMA enrichment of interactor (log2) (CLIC1, O00299): 5.58 | PRISMA enrichment of interactor (log2) (DBR1, Q9UK59): 4.91 | PRISMA enrichment of interactor (log2) (DVL2, O14641): 4.4 | PRISMA enrichment of interactor (log2) (ECHDC1, Q9NTX5): 4.77 | PRISMA enrichment of interactor (log2) (EIF3H, O15372): 7.08 | PRISMA enrichment of interactor (log2) (FANCD2, Q9BXW9): 5.19 | PRISMA enrichment of interactor (log2) (HLTF, Q14527): 4.64 | PRISMA enrichment of interactor (log2) (HMGA2, P52926): 7.16 | PRISMA enrichment of interactor (log2) (HMGB1, P09429): 4.68 | PRISMA enrichment of interactor (log2) (HP1BP3, Q5SSJ5): 6.19 | PRISMA enrichment of interactor (log2) (HSDL1, Q3SXM5): 4.67 | PRISMA enrichment of interactor (log2) (LMNB2, Q03252): 4.91 | PRISMA enrichment of interactor (log2) (MRPL48, Q96GC5): 4.82 | PRISMA enrichment of interactor (log2) (MRPL58, Q14197): 3.93 | PRISMA enrichment of interactor (log2) (OBSL1, O75147): 6.85 | PRISMA enrichment of interactor (log2) (PPP1R10, Q96QC0): 6.21 | PRISMA enrichment of interactor (log2) (RAB21, Q9UL25): 3.93 | PRISMA enrichment of interactor (log2) (RETREG3, Q86VR2): 3.9 | PRISMA enrichment of interactor (log2) (RFC4, P35249): 4.78 | PRISMA enrichment of interactor (log2) (RIF1, Q5UIP0): 9.2 | PRISMA enrichment of interactor (log2) (RNF40, O75150): 3.75 | PRISMA enrichment of interactor (log2) (SAE1, Q9UBE0): 5.11 | PRISMA enrichment of interactor (log2) (SEC24C, P53992): 4.81 | PRISMA enrichment of interactor (log2) (SLC30A7, Q8NEW0): 5.98 | PRISMA enrichment of interactor (log2) (SND1, Q7KZF4): 4.86 | PRISMA enrichment of interactor (log2) (SPATS2, Q86XZ4): 3.98 | PRISMA enrichment of interactor (log2) (TIA1, P31483): 3.95 | PRISMA enrichment of interactor (log2) (TOMM70, O94826): 5.16 | PRISMA enrichment of interactor (log2) (TSPYL2, Q9H2G4): 4.81 | PRISMA enrichment of interactor (log2) (UBR4, Q5T4S7): 4.73 | PRISMA enrichment of interactor (log2) (XRCC5, P13010): 7.31 | PRISMA enrichment of interactor (log2) (ZBTB10, Q96DT7): 5.41 | PRISMA enrichment of interactor (log2) (ZNF22, P17026): 4.45
